From article PMC12040169 (PLOS Biology, 2025)
Some of the results follow.

Test system: T1, CTL2-GFP (C. trachomatis L2/434/Bu, GFP-expressing)
T1 construct: L2/434/Bu, GFP-expressing
Set-up: species or system HeLa; Intracellular C. trachomatis growth in HeLa cells, bulk GFP fluorescence relative to DMSO
Settings: bulk GFP, single well; 28.5 h, 10 µM; inhibitor

Row | SMILES | % of control remaining [%]
1 | CCn1c(SCc2cccnc2)nc2c(c1=O)SC(C)C2 (stereo not shown) [CBK287643] | 102.802
2 | CN(C)CC(=O)N1CCc2nc(-c3ccccc3F)sc2C1 [CBK281918] | 147.139
3 | Cc1cc(=O)n2c(C(=O)Nc3cccc(C(=O)O)c3)c(C(=O)Nc3cccc(C)c3C)sc2n1 [CBK297545] | 87.9292
4 | CN(C)CCN(C)Cc1ccc2c(c1)Cc1ccccc1-2 [CBK261856] | 116.603
5 | O=C(c1cnc(-c2ccncc2)s1)N(CC(F)(F)F)C1CCC1 [CBK304119] | 112.798
6 | O=C(c1cccnc1)C1CCN(C(=O)C2CCCCC2)CC1 [CBK283817] | 119.89
7 | O=C(NCC(=O)N(c1cccc(C(F)(F)F)c1)C(C(=O)NCc1ccco1)c1ccccc1F)c1ccco1 (stereo not shown) [CBK084740] | 92.5971
8 | O=C1c2ccc(Oc3ccc4c(c3)C(=O)N(c3cccnc3)C4=O)cc2C(=O)N1c1cccnc1 [CBK262773] | 118.784
9 | COc1ccccc1CN(CC1CCNCC1)C(=O)NC(c1ccccc1)c1ccccc1 [CBK049741] | 86.6439
10 | Cc1nc(C)c(C(=O)Nc2nn(C)c3cccc(N4CCOCC4)c23)o1 [CBK306534] | 130.917
11 | Cc1cc(N2C(=O)c3oc4ccccc4c(=O)c3C2c2ccncc2)no1 (stereo not shown) [CBK287780] | 105.571
12 | O=C(Cc1c[nH]c2ccccc12)N1CCC2(CCCN(C(=O)c3cscn3)C2)C1 (stereo not shown) [CBK131590] | 117.35
13 | O=C(O)CC(Cc1ccc(Cl)cc1)C(=O)Nc1ccccc1I (stereo not shown) [CBK262021] | 92.949
14 | COc1ccc(CCC(=O)Nc2ncccc2OCCCC#N)cc1 [CBK304957] | 96.6175
15 | Cc1ccc(C(=O)COC(=O)c2cc(O)nc3ccccc23)cc1[N+](=O)[O-] [CBK264085] | 114.403
16 | Cn1ccc(C(=O)NCc2cccnc2OCC(F)(F)F)cc1=O [CBK305574] | 144.458
17 | CCOC(=O)C1CCCN(C(=O)Cn2ccc3sccc3c2=O)C1 (stereo not shown) [CBK304099] | 114.845
18 | CCN(CC)C(=O)C1CCN(S(=O)(=O)c2ccc(C)cc2)CC1 [CBK157834] | 100.728
19 | COc1cncc(-c2cccc(NCC(c3cccnc3)N(C)C)n2)c1 (stereo not shown) [CBK037741] | 149.712
20 | c1coc(-c2cc(NC3CCCCC3)ncn2)c1 [CBK090901] | 102.009
21 | Cc1cc(N(C)C)cc(C2CCCN(C(=O)c3cccc(F)c3)C2)n1 (stereo not shown) [CBK282003] | 134.526
22 | COC1=CC2CCNC(CCCCC3NCCc4cc(OC)c(OC)cc43)C2C=C1OC (stereo not shown) [CBK013354] | 117.281
23 | CC(C)(C)OC(=O)NNC(=S)Nc1ccc(S(N)(=O)=O)cc1 [CBK267107] | 168.841
24 | COc1nccnc1-c1cc2ccccc2s1 [CBK106781] | 138.342
25 | CCOC(=O)c1ccc(-n2c(CCC(=O)O)ccc2-c2ccc(F)cc2)cc1O [CBK266010] | 198.49
26 | O=C(Nc1ccc2[nH]ccc2c1)c1c(F)cccc1F [CBK144711] | 152.067
27 | CS(=O)(=O)c1ccc(-c2ccc3c(n2)CCN(C2CCN(C(=O)OCc4ccccc4)CC2)C3)cc1 [CBK169530] | 103.013

Row | SMILES | % of control remaining [%]
28 | CN1C[C@@H](NC(=O)Nc2ccccc2)C[C@H]1c1nc(-c2cnccn2)no1 [CBK288851] | 127.151
29 | O=C(Cc1ccccc1[N+](=O)[O-])Nc1ccc(S(=O)(=O)N2CCCC2)cc1 [CBK265292] | 122.822
30 | CCn1cc(CN2CCC(c3cc(Cc4cccc(OC)c4)cc(C)n3)CC2)c(C)n1 [CBK285671] | 105.149
31 | O=C(c1ccc(-c2cnc3[nH]c(=O)n(Cc4ccccn4)c3n2)cc1)N1CCOCC1 [CBK064413] | 123.27
32 | Cc1nn(C)c(N2CCNCC2)c1NC(=O)Cc1c[nH]c2ccccc12 [CBK050256T] | 100.659
33 | CC(=O)Nc1cccc(NC(=O)N2CCCC(CO)C2)c1 (stereo not shown) [CBK156049] | 118.093
34 | O=C(N/N=C/c1ccc(N2N=C(c3ccc(Cl)cc3)CC2c2ccc(Cl)cc2)cc1)c1cccnc1 (stereo not shown) [CBK262494] | 66.7284
35 | C=CCC(NCc1ccccc1)c1ccc(C(=O)O)o1 (stereo not shown) [CBK286591] | 124.14
36 | c1ccc2c(Sc3cc(N4CCCC4)ncn3)cccc2c1 [CBK089538] | 93.0091
37 | CNC(=O)CSc1nc2ccccc2nc1NC(C)C [CBK107171] | 100
38 | O=C(O)CN1C(=O)c2ccc(C(=O)c3ccc4c(c3)C(=O)N(CC(=O)O)C4=O)cc2C1=O [CBK262166] | 100
39 | O=C1N[C@H]2CCCN(C(=O)Cn3cccnc3=O)[C@H]2CCCCCOc2ccccc21 [CBK292096] | 144.004
40 | COc1ccc(-c2ccc(/C=N/N=C3\NC(=O)C(CC(=O)O)S3)o2)c([N+](=O)[O-])c1 (stereo not shown) [CBK264516] | 112.225
41 | Cc1cc(C(=O)N2CCC(c3nn(C)c4ncccc34)CC2)cs1 [CBK284987] | 84.0353
42 | COc1cccc(N2C(=O)/C(=C/c3ccc(O)c(O)c3)SC2=S)c1 [CBK263096] | 100
43 | Fc1cccc(Cl)c1CNc1ccc(CNc2ncn[nH]2)cc1 [CBK267245] | 150.162
44 | CCSc1nc(N)cc(O)n1 [CBK086474] | 105.615
45 | OC(COc1ccccc1)Cn1ncnn1 (stereo not shown) [CBK026083] | 119.225
46 | CN(C)CCCNC(=O)COc1ccccc1 [CBK262189] | 113.748
47 | O=C(COC(=O)c1cc(S(=O)(=O)N2CCCCC2)ccc1Cl)c1ccccc1 [CBK261657] | 110.911
48 | CCn1cc(C(=O)N2CCC(C(=O)O)CC2)c(=O)c2cc3c(cc21)OCO3 [CBK286713] | 113.579
49 | CN(C)CCN(C)S(=O)(=O)c1ccc(C(C)(C)C)cc1 [CBK059035T] | 124.84
50 | Cc1c(-c2cncn2CC(=O)NC(C)(C)C)[nH]c2ccccc12 [CBK281911] | 109.026
51 | CC(=O)C(C)Oc1ccccc1-n1cccc1 (stereo not shown) [CBK020334] | 119.276
52 | COC(=O)c1ccc(NC(=O)CSc2nnc(-c3ccncc3)s2)cc1 [CBK269239] | 96.8076
53 | COc1nccnc1OC1CCN(Cc2ccc(C(F)(F)F)cc2)CC1 [CBK084243] | 165.155
54 | CC(C)OC(=O)N1CCC(N(C)Cc2ccc(-c3ccc(S(C)(=O)=O)cc3)cn2)CC1 [CBK165581T] | 91.9463

Exported as labelled records: entries from further up
C=CCC(NCc1ccccc1)c1ccc(C(=O)O)o1 (stereo not shown) [CBK286591]
  % of control remaining [%]: 124.14
c1ccc2c(Sc3cc(N4CCCC4)ncn3)cccc2c1 [CBK089538]
  % of control remaining [%]: 93.0091
CNC(=O)CSc1nc2ccccc2nc1NC(C)C [CBK107171]
  % of control remaining [%]: 100

(list continues)

Row | SMILES | % of control remaining [%]
55 | CC(=O)Nc1cccc(-n2nnnc2SCC2CCCCO2)c1 (stereo not shown) [CBK305746] | 128.911
56 | O=c1[nH]nc(-c2cccs2)n1-c1ccncc1 [CBK283868] | 112.581
57 | CC(C)N(CC(N)=O)Cc1nc(-c2cccc(C(F)(F)F)c2)no1 [CBK306287] | 141.671
58 | COc1cc(C=CC(=O)O)ccc1OCc1cn2cc(Cl)ccc2n1 [CBK296722] | 137.001
59 | COc1ccccc1NC(=O)COc1cccc(Cl)c1Cl [CBK266029] | 163.605
60 | Clc1cccc(-c2cccc(Nc3cccnc3)n2)c1Cl [CBK037800] | 98.7111
61 | O=S1(=O)C=C(SCCN2CCCCC2)c2ccccc21 [CBK265328] | 100
62 | O=C(NC1CC1)[C@H]1CN(Cc2ccccc2)C[C@@H]1C(=O)c1ccccc1 [CBK285264] | 93.3627
63 | Cc1ncccc1COC(=O)Nc1cccnc1 [CBK138237] | 168.203
64 | CC(C)CN1C(=S)N(Cc2ccc(-c3ccccn3)cc2)[C@H]2[C@H]3OC(=O)[C@H](C[C@H]3O)[C@H]21 [CBK288938] | 95.7126
65 | COCC(=O)Nc1nc(OC)cnc1/C=C\c1ccccc1 [CBK145360] | 110.777
66 | CC1CCC(C(N)=O)CN1C(=O)c1ccc(Oc2cccc(Br)c2)nc1 (stereo not shown) [CBK306005] | 107.554
67 | Cc1nc(CN2CCCC(NCc3cccc4ccccc34)C2)no1 (stereo not shown) [CBK304068] | 142.164
68 | OC[C@H]1CCN(Cc2cc(Cl)ccc2OCCCn2ccnc2)C[C@H]1O [CBK306581] | 142.516
69 | CCn1cc(C(=O)O)c(=O)c2cc(F)c(N(C)CCc3ccc(OC)c(OC)c3)cc21 [CBK263070] | 98.6502
70 | NC1=NC(=O)C2(COC(c3cccnc3)OC2)S1 (stereo not shown) [CBK019981] | 112.599
71 | Cc1c(N2C(=O)/C(=C3\C(=O)Nc4ccc([N+](=O)[O-])cc43)SC2=S)c(=O)n(-c2ccccc2)n1C [CBK263071] | 78.5678
72 | O=C(CCn1c(-c2ccncc2)cc2cccnc21)N1CCCC1 [CBK282151] | 167.845
73 | O=C1NCCN(C(=O)c2[nH]nc3c2CCCCC3)C1Cc1ccccc1-c1ccc(F)cc1 (stereo not shown) [CBK285831] | 122.34
74 | CN(C)CCCOc1nccnc1N1CCCC1 [CBK113427] | 121.348
75 | O=C(Nc1ccccc1C(=O)N1CCCC1)c1cc(=O)[nH]c2ccccc12 [CBK295664] | 141.255
76 | CCN(CC)C(=O)c1ccccc1NS(=O)(=O)c1cc(Br)c(Cl)s1 [CBK045424] | 81.2448
77 | COc1ccc2c(-n3cncn3)ccnc2c1 [CBK025957] | 163.625
78 | CN(C)c1ccc(CC(=O)N2CCCc3ccccc32)cc1 [CBK200347] | 165.877
79 | Cc1ccc(-c2ncc(OC3CCN(C)CC3)nc2N)c(C)c1 [CBK145139] | 103.966
